# Data as given in PubChem BioAssay AID743121 (NCATS, 2013)
# Screen: 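Genes whose silencing strengthens cell killing by camptothecin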 (primary screen)
# Cells: MDA-MB-231 cells, a human breast cancer line
# Reagents: single siRNA against human genes, 20 nM siRNA (0.8 pmol per well)
# Time to read-out: 120 h (drug added 48 h after transfection, read 72 h later)
# Treatment: camptothecin 20 nM (about EC30) for 72 h; vehicle 0.1% DMSO in parallel plates
# Measurement: 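CellTiter-Glo ATP signal, scaled to control siRNA as percent viability; sensitisation given as log2 of untreated divided by camptothecin-treated viability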
# Reading the numbers: log2 vehicle/camptothecin viability: higher = stronger sensitisation to camptothecin; viability with camptothecin: higher = more viable cells
# Active means: 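Each gene scored by redundant siRNA activity (RSA) over its individual siRNA ratios; a gene is called active at p < 0.001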
# In all, the deposit lists about 26,000 reagents; this is a part drawn at random. Of all reagents, 167 (0.63%) got an active call. 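Calls are per gene from RSA p-values that are not deposited; an individual active-marked siRNA can sensitise only weakly.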 Reagents against one gene are numbered here. Further read-outs or replicates are left out here.
gene knocked down,siRNA no.,log2 vehicle/camptothecin viability,viability with camptothecin (% of control),Outcome
MTHFD2,1,-0.502,80.5,inactive
MTHFD2,2,-0.738,93.4,inactive
MTHFD2,3,-0.391,13.9,inactive
MTHFD2,4,-0.271,76.4,inactive
GPR152,1,-0.212,71.3,inactive
GPR152,2,0.181,63.4,inactive
GPR152,3,-0.473,37.6,inactive
GPR152,4,-0.166,53.7,inactive
CAMKK2,1,-0.0343,54,inactive
CAMKK2,2,-0.166,111,inactive
CAMKK2,3,-0.42,72.8,inactive
CAMKK2,4,-0.646,61.7,inactive
CAPN10,1,0.239,98.4,inactive
CAPN10,2,0.54,53.3,inactive
CAPN10,3,-0.279,61,inactive
CAPN10,4,-0.588,67.2,inactive
CAPN10,5,0.254,41.9,inactive
CAPN10,6,-0.173,89.7,inactive
CAPN10,7,1.09,36.8,inactive
CAPN10,8,-0.396,117,inactive
CAPN10,9,-0.0307,73.2,inactive
BEGAIN,1,0.402,58.1,inactive
BEGAIN,2,-0.327,49,inactive
BEGAIN,3,-0.0122,80.1,inactive
BEGAIN,4,0.149,83,inactive
BPIFB4,1,-0.0375,82.5,inactive
BPIFB4,2,-0.169,115,inactive
BPIFB4,3,0.00727,37.5,inactive
BPIFB4,4,-0.121,83.2,inactive
NTF3,1,-0.0218,84.3,inactive
NTF3,2,-0.425,105,inactive
NTF3,3,-0.238,98.6,inactive
NTF3,4,-0.199,60.7,inactive
CPA5,1,-0.0128,29.5,inactive
CPA5,2,0.0751,81.7,inactive
CPA5,3,0.0121,99.3,inactive
NEB,1,-0.111,99.6,inactive
NEB,2,-0.0899,106,inactive
NEB,3,-0.0498,95.4,inactive
NEB,4,-0.447,74.7,inactive
FOXN1,1,0.0109,59.7,inactive
FOXN1,2,-0.338,84.7,inactive
FOXN1,3,-0.384,69.3,inactive
FOXN1,4,1.1,15.3,inactive
ABL1,1,-0.257,73.9,inactive
ABL1,2,0.307,80.5,inactive
ABL1,3,-0.306,57.5,inactive
ABL1,4,-0.376,73,inactive

Limited to “viability with camptothecin (% of control)”, for 3 of the entries above:
CAPN10 #9	73.2
BEGAIN #1	58.1
BEGAIN #2	49
